Usually IC50 stands for the point on the concentration scale where inhibition reaches its midpoint.

The assay deals with Bile salt export pump (Homo sapiens, UniProt O95342). The assay is described as follows: Inhibition of human BSEP expressed in fall armyworm sf9 cell plasma membrane vesicles assessed as reduction in vesicle-associated [3H]-taurocholate transport preincubated for 10 mins prior to ATP addition measured after 15 mins in presence of [3H]-taurocholate by topcount based membrane vesicle transport assay. It counts as ADME.

In the case of `CN(C)CCOC(c1ccccc1)c1ccccc1` [DIPHENHYDRAMINE], the IC50 is over 135 µM.

The values are drawn from ChEMBL document CHEMBL4011581, “Interference with bile salt export pump function is a susceptibility factor for human liver injury in drug development” (Toxicol Sci, 2010).
